Data as given in PubChem BioAssay AID1259271 (Sanger Institute, 2017).
In all, the deposit lists 160 reagents; below is a random part of them. 124 of them (78%) count as active. 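Each row is one of four siRNAs per gene; gene-level confirmation, requiring two siRNAs in several cell lines, is not included.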 Entries without a mark were called inactive. Reagents against one gene are numbered here. Not all columns of the deposit are shown. The record does not give: the amount of reagent, the time to read-out.

- Assay: 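Follow-up check of kinase genes for lethal pairing with a drug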 (follow-up of hits)
- Cell system: RKO colorectal cancer cells
- Reagents: single siRNA against human genes
- Challenge: anchor drug added to each siRNA well, cetuximab 5 µg/ml, trametinib 10 nM or BYL719 1 µM, compared with DMSO vehicle; exposure length not given
- Measurement: 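Survival of cells relative to control pool 2 (non-targeting), replicate average, plus a synergy score for each anchor drug (trametinib 10 nM, cetuximab 5 µg/ml, BYL719 1 µM) compared with DMSO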
- Scale: synergy score with BYL719 and synergy score with cetuximab and synergy score with trametinib: higher = stronger synthetic lethality with the drug
- Call rule: 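Any anchor drug giving synergy above 0.10 makes the siRNA a hit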
- Meaning of the calls: active = synergy with at least one drug; inactive = no synergy with any drug

The opening 2 entries, to show the layout:
no.	Gene	reagent	synergy score with BYL719	synergy score with cetuximab	synergy score with trametinib
1	NLK	1	0.0336 (active)	0.0351	0.253
2	NLK	2	0.0362 (active)	0.402	0.31

Main list, from the start:
no.	Gene	reagent	synergy score with BYL719	synergy score with cetuximab	synergy score with trametinib
1	NLK	1	0.0336 (active)	0.0351	0.253
2	NLK	2	0.0362 (active)	0.402	0.31
3	NLK	3	-0.192 (active)	0.147	0.13
4	NLK	4	-0.0749 (active)	0.286	0.191
5	MAPK4	1	-0.0281 (active)	0.02	0.248
6	MAPK4	2	0.216 (active)	0.191	0.386
7	MAPK4	3	0.0741 (active)	0.134	0.147
8	MAPK4	4	0.179 (active)	0.14	0.367
9	PRAG1	1	0.0763 (active)	0.233	0.174
10	PRAG1	2	0.236 (active)	0.112	0.259
11	PRAG1	3	0.00971	0.0273	0.0879
12	PRAG1	4	0.178 (active)	0.286	0.231
13	CDK6	1	-0.0841 (active)	0.156	0.19
14	CDK6	2	-0.0256 (active)	0.0958	0.261
15	CDK6	3	0.0184 (active)	-0.0323	0.151
16	CDK6	4	-0.0782 (active)	0.102	0.0992
17	STK36	1	-0.229 (active)	0.0542	0.118
18	STK36	2	-0.152 (active)	-0.0103	0.184
19	STK36	3	-0.218 (active)	0.0311	0.119
20	STK36	4	-0.143	-0.0454	-0.0379
